Experimental data: PubChem BioAssay AID1347426 (Functional Genomics Laboratory (NCATS/FGL), 2020)
The campaign covered roughly 31,000 sequences. About 1,400 (4.5%) were called active.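 The calls were made as follows: active = median seed-adjusted z-score above 1 or below -1; inactive = the rest.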 Some of the results follow.

Assay: Novel Modifiers of Survival Motor Neuron (SMN) Protein: Gene Identification via Genome-wide siRNA Screen;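 also: luminescence tracks full-length SMN protein made from the SMN2 reporter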
Conditions: HEK293T SMN2-luciferase reporter, siRNA knockdown, 72 h; actives lie on both sides
In short: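 Each of three siRNAs per gene is reverse-transfected (1 pmol) into reporter HEK293T cells whose luciferase output tracks SMN protein level. After 72 h culture, ONE-Glo luminescence is control-normalized, log10-transformed and MAD-standardized; Common Seed Analysis deprioritizes seed-driven hits.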

Sequence | median seed-adjusted z-score
AGGUGUCCACGUUACGCAATT against MLX | inactive: 0.126
GAAACCAAGUCAUAUGAAATT against CRTAP | inactive: 0.581
GCAUUAACCGAGACAAGCATT against NCF2 | inactive: -0.201
ACAUUGACAAGAUCGACGATT against IRX1 | inactive: 0.673
GUUUUUGUCCUAGCCCAUATT against OTUD7A | inactive: -0.53
GGAAGAGACUCAACACCUUTT against PLXNB3 | inactive: -0.0652
GCAGGCACAUGGUUCCUCUTT against KCNJ10 | inactive: -0.0371
GCUUUCCUCUCACCGCAAATT against TGM6 | inactive: 0.0811
GAGCGACAGUGACCAAGGATT against KLF7 | inactive: 0.393
ACUUCAUGCUUAACCAGUATT against CCBL1 | inactive: -0.0496
GCGAAAAAGAUGACCGAAATT against SMC4 | inactive: 0.646
CCGUCUACGUGCUGCACUATT against GPR17 | inactive: -0.309
CCACCAAAGUUACCACGAATT against RBL1 | inactive: -0.0547
CUAAAGGUCUUGUUACAUUTT against ASNS | active: -1.1
AGAUCCCACAGAUUAGCUATT against GRM2 | inactive: -0.664
GGACAAUGCAGGAGAUAGATT against SETDB1 | inactive: 0.0517
AGAGGAAAAUCAACAAGAATT against CDX2 | inactive: 0.23
GUUUCAGAAUUGUAGAGCATT against LHX8 | inactive: 0
CAAAGUAUGUGGUUCGUGATT against GBE1 | inactive: 0
GCAGAUGGAGUAAUCGUUUTT against SNX6 | inactive: 0
GCCGCGCUGAUGAUCCUUATT against HTR1E | inactive: 0.00535
GAGUCUACCUUACCAUAUATT against SC5DL | inactive: -0.439
CCUUCAUAGUCAACAGCAATT against MGC16703 | inactive: 0.55

Sequence | median seed-adjusted z-score
GCUCAUUACUCACAGUAUATT against PTPLA | inactive: 0.291
GGUGCGUAAGUAUCUGCUUTT against SLC12A9 | inactive: -0.0853
GGCUCUUACAAGUCCUUAUTT against CHRM2 | inactive: 0.053
GGGAUUCCAUGUGCCGACATT against GNB2 | inactive: 0.561
CCAGCAUGCGGAAAACCUUTT against MYO18A | inactive: 0.174
CAGAUUACAUUUACCCGAUTT against SEPHS1 | inactive: -0.102
CCUUCCUCAUUAAAAAUUATT against SPRED1 | inactive: 0.387
CCACCUUCCUUAUCGACAUTT against FZD8 | inactive: -0.177
AAGGCAAGCUGGUUCAGAATT against ZNF367 | inactive: -0.377
GGGAGAACAGCGACAAACATT against CBFB | inactive: -0.0379
GAGUAUUUUGAAACCUUCATT against SULT1C2 | inactive: 0
GAAUACCACCUGCUAUAAATT against COPS8 | inactive: 0.148
GACUGUCACUUCUUACAGATT against ANGEL2 | inactive: -0.59
GCAAAAUGAUCAUUAAUGATT against EIF3C | inactive: 0.56
GGUCCAUGGUGGAAGACGATT against MAL | inactive: 0.0733
CACUUGGAGUGGUGAAUCATT against NCL | active: 1.33
GGAGCACAGUGACGAGAAUTT against RGS13 | inactive: 0.0487
CCAACUGAGAAUAACUCAATT against GULP1 | inactive: -0.0337
GAGAGCAUCCUGUACCGUATT against NTRK1 | inactive: -0.223
ACACGUUCAUGCUAAAGCATT against HDAC5 | inactive: -0.342
GAUACGAGAGAGCAAUUUATT against NUP107 | inactive: -0.692
GCCGAUACCUUGUCAACCATT against SLC27A3 | inactive: -0.341
GCAUCGCAAUGGUUGCAUUTT against SLC26A3 | inactive: -0.506

Sequence | median seed-adjusted z-score
GACUUCAGGUUGAUGAGAATT against SLC25A17 | inactive: 0.0311
CCAUCGCCUCAGUUGCUAUTT against CORIN | inactive: -0.0274
GGAUCCUAUUUGUCUAUUUTT against PSMD12 | inactive: 0.956
ACUGUAAUCAGGAUUCUCATT against ANXA10 | inactive: 0.0445
GAGAAAAAGCGGAUCAAGATT against GRK6 | inactive: -0.862
GGCUAAUACUGAGCUAGAATT against KRT12 | inactive: -0.0457
GAAUAGAAGUCUUAUUGAATT against ZKSCAN4 | inactive: 0.0558
GACCACCACUUAUAGGGUATT against FUT3 | inactive: 0.11
GCCUGUUUCAAGACACUGATT against CRNN | inactive: -0.0758
GGAGAAAGGUGGUCACAGUTT against DBH | inactive: 0.337
UCGUCUUUCUAGCUACAGATT against SIAH2 | inactive: 0.156
CGUCAAAUUUUUGCACAAATT against GPR176 | inactive: 0.0782
AGGUCUCCCUAUACCGAGATT against SOD3 | inactive: -0.0691
GCGCAGUAUGGGUUGGAAATT against ZMYND11 | inactive: -0.032
GAACUUCUGGACAAGAAAATT against CTSB | inactive: -0.31
CAAUGAUUGGGCUCUAUGATT against EMID1 | inactive: 0.979
CGGACAAGCUGAACGAACATT against TTC15 | inactive: -0.235
CUCUUCUCCGGUUACAACATT against CHRNA4 | inactive: 0.174
GGCAAUCAGUGUAGUGUAATT against TBC1D8B | inactive: -0.985
GCUUAUGAUGUCUACAAUATT against BBS2 | inactive: 0
GGAGCGCAAGAUCACCUUATT against SSTR1 | inactive: 0.285
GAACAAUCCGAUUCACGUATT against AKT1 | inactive: -0.288
GGAUAGUUACUGACCGGGATT against NCL | active: 1.33

Given with each value named: entries from further up
CGUCAAAUUUUUGCACAAATT against GPR176
  median seed-adjusted z-score: inactive: 0.0782
CAAUGAUUGGGCUCUAUGATT against EMID1
  median seed-adjusted z-score: inactive: 0.979
